Results from the supplement of paper PMC12889115.
The other results are listed elsewhere or left out. These are raw signals, not scaled to a control.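 In the initial screen, polymyxin B was used at a concentration that permeabilizes Salmonella's outer membrane but not its inner membrane. Maximum growth was set by DMSO wells with or without polymyxin B. Since plates varied, data were ranked per plate, and compounds giving the lowest OD600 advanced as hits.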

Tested on: Salmonella enterica serovar Typhimurium SL1344
Test: bacterial growth OD600 after 18 h with compound and polymyxin B; higher = more bacterial growth (less inhibition)
Conditions: 50 µM, Mueller-Hinton broth

Compound | bacterial growth OD600 (polymyxin B 0.75 µg/mL) | bacterial growth OD600 (polymyxin B 1 µg/mL)
CC(=O)NCCNC(=O)C1(N(C)C)Cc2ccccc2C1 | 0.825 | –
Cc1c[nH]c(C(=O)N2CCC(C3CCN(Cc4ccc(Cl)cc4)C3)CC2)n1 (stereo not given) | 0.787 | –
COCCNC(=O)c1ccc(OC)cc1OC1CCN(Cc2nc3ccccc3[nH]2)CC1 | 0.951 | –
Cc1cccc(NC(=O)CCC2CCN(C(=O)CCn3cncn3)CC2)c1 | – | 0.964
O=C(Nc1cccc(-n2cccn2)c1)C1CCCN1C(=O)Cn1cccn1 (stereo not given) | – | 1.18
COc1cc(CC2(CCC(=O)N(Cc3c(C)nn(C)c3C)C(C)C)CCC(=O)N2)ccc1F (stereo not given) | 0.822 | –
O=C(Nc1cccc(-n2cccn2)c1)C1CCCN1C(=O)C1CCC1 (stereo not given) | – | 0.938
Cc1ccccc1Cn1cc(C(=O)N(C)Cc2ccccc2Cl)nn1 | – | 0.011
COc1ccc(C(=O)NC(C)CCCC(C)(C)O)cc1OC1CCN(C(C)=O)CC1 (stereo not given) | – | 0.982
COc1cccc(CC2(CO)CCCN(Cc3ccc(F)c(OC)c3)C2)c1 (stereo not given) | – | 0.852
CC[C@H](C)[C@H](NC1CCN(c2nc(C)c3cc(OC)ccc3n2)CC1)C(=O)OC | 0.01 | –
C=C(C)CNc1ccc(C(=O)N2CCCN(c3ncccn3)CC2)cn1 | – | 0.871
O=C(Nc1ccccc1Oc1cccnc1)C1CCCN(CCc2ccccc2)C1 (stereo not given) | – | 1.05
COCCN1CC(C(=O)NCCc2ccccc2C)CCC1=O (stereo not given) | – | 0.901
Cc1nc(-c2ccncc2)ncc1C(C)NC1CCSCC1 (stereo not given) | – | 0.942
CC(C)CN1CCC(C2CCN(C(=O)C3(C(F)(F)F)CC3)C2)CC1 (stereo not given) | 0.844 | –
COc1ccc(-n2cc(CN(C)C3CCOCC3)c(-c3cccc(F)c3)n2)cc1 | – | 0.915
Cc1cccc(-c2cnc(-c3ccncc3)nc2C2CCN(C(=O)c3ccc4[nH]ccc4c3)CC2)c1 | 0.083 | –
Cc1ccn(CC(=O)N2CCC(n3nccc3NC(=O)C(C)(C)C)CC2)n1 | – | 1.07
COc1cccc(CNC2CCC2)c1OCC(O)CN1CCOCC1 (stereo not given) | – | 1.12

Two consecutive records out of the list so far, for reference:
Compound | bacterial growth OD600 (polymyxin B 0.75 µg/mL) | bacterial growth OD600 (polymyxin B 1 µg/mL)
C=C(C)CNc1ccc(C(=O)N2CCCN(c3ncccn3)CC2)cn1 | – | 0.871
O=C(Nc1ccccc1Oc1cccnc1)C1CCCN(CCc2ccccc2)C1 (stereo not given) | – | 1.05
